The source of these data is PubChem BioAssay AID445 (National Center for Advancing Translational Sciences (NCATS), 2006).

Some of the results follow. Further columns of the screen follow, without active or inactive calls. Compounds called inactive in the main read-out are mostly missing here. The note in brackets gives the kind of curve behind each potency; many fits are weak.

The nature of this test: IkB Signaling. The note with it: ABC-DLBCL IkBa-CBG/CBR dual luciferase ratio (green luciferase fused to IkBa over red control in OCI-Ly3 lymphoma cells), 4 h; measured here: control luc red channel unless noted. In outline:
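In this assay, an IκBα–CBG68 fusion accumulates when IKK-driven degradation is blocked; native CBR normalizes for cell number. OCI-Ly3 cells were treated 4 h with compound and doxycycline, then green and red light read after Chroma-Glo addition.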
In the case of `COc1cccc(C2C=C(c3ccc(OC)cc3OC)Nc3nnnn32)c1` (stereo not given), the AC50 (commonly the concentration giving half of the maximal activity seen) is 12.6 µM [falling, partial curve].

`COc1cc(NC(=O)c2nc3ccccc3nc2C)cc(OC)c1OC`: the AC50 was 25.1 µM [falling, partial curve].

For the compound `COc1cc(CN(C(=O)c2cccc(Cl)c2)c2ccccn2)cc(OC)c1OC`, the AC50 was 39.8 µM [falling, partial curve].

As to `CCC(C(=O)N1CCN(c2ccccc2F)CC1)n1nc(C)c2sc3ccccc3c2c1=O` (stereo not given), the AC50 was 5.01 µM [falling, partial curve].

With `COc1ccc(NC(=O)CCn2nc(-c3ccccc3OC)c3c(C)cc(C)nc32)cc1`, the AC50 was 15.8 µM [falling, partial curve].

As for `Cc1ccccc1OCc1ccc(-c2nc(C#N)c(N3CCN(C)CC3)o2)o1`, the AC50 was 20 µM [falling, single point].

For the compound `CC1=C(C(=O)OCC(C)C)C(c2ccc(OCc3ccccc3)cc2)N2C(=O)CCSC2=N1` (stereo not given), the AC50 was 12.6 µM [falling, partial curve].

Consider `Cc1cc(NC(=O)CSc2nc3c([nH]c4ccccc43)c(=O)n2-c2ccccc2)no1`, for which the AC50 was 1 µM [rising, full curve, poor fit].

`O=c1cc(-c2ccc(F)cc2)nc(SCc2nc(-c3cccc(Cl)c3)no2)[nH]1`: the AC50 was 6.31 µM [rising, single point].

Regarding `O=C(C1CCCN(S(=O)(=O)c2ccc(Br)s2)C1)N1CCN(c2ccc(F)cc2)CC1` (stereo not given), the AC50 was 20 µM [falling, partial curve].

For the compound `CCc1ccc(NC(=O)CSc2nccn2-c2cccc(C)c2C)cc1`, the AC50 was 39.8 µM [falling, single point].

Regarding `Cc1ccc(C2CC(=O)N(Cc3ccccc3)c3c2c(C)nn3-c2nc(C)cc(C)n2)cc1` (stereo not given), the AC50 is 25.1 µM [falling, partial curve].

In the case of `CC1CN(C(=O)N2CCC(C(=O)NCCC3=CCCCC3)CC2)c2cc(Cl)ccc2O1` (stereo not given), the AC50 is 39.8 µM [falling, single point].

Turning to `COC(=O)c1c(C)[nH]c(C(=O)COC(=O)Cc2ccc3c(c2)OCCO3)c1C`, the AC50 is 25.1 µM [falling, single point].

With `Cc1ccc(C)n1-c1c(C(=O)NCCCN2CCN(c3ccc(F)cc3)CC2)sc2ncccc12`, the AC50 is 2 µM [falling, full curve].

`O=C(c1c(F)c(F)c(F)c(F)c1F)N1CCN(c2cccc(C(F)(F)F)c2)CC1`: the AC50 is 31.6 µM [falling, single point].

Turning to `Cc1ccc(Cl)cc1-n1ncc2c(NCCCn3ccnc3)ncnc21`, the AC50 was 15.8 µM [falling, single point].

On to `O=C(C1CCN(S(=O)(=O)Cc2ccccc2)CC1)N1CCN(c2ccc(F)cc2)CC1`, for which the AC50 is 39.8 µM [falling, single point].

`CCOc1ccc(Cc2nnc(SCC(=O)c3ccc(OC)cc3)o2)cc1`: the AC50 was 20 µM [falling, partial curve].

In the case of `CCOC(=O)c1c(C)[nH]c(C(=O)OC)c1CCC(=O)OC`, the AC50 is 12.6 µM [rising, partial curve].

Consider `CCOC(=O)Cc1csc(SCC(=O)c2c(N)n(CC(C)C)c(=O)n(C)c2=O)n1`, for which the AC50 was 12.6 µM [falling, partial curve].

On to `Cc1cccc(-c2nnn3c2nc(NCCc2ccc(S(N)(=O)=O)cc2)c2ccccc23)c1`, for which the AC50 was 1 µM [falling, full curve].

As for `COc1ccc(OC)c(NC(=O)CSc2cn(CC(=O)N3CCCCCC3)c3ccccc23)c1`, the AC50 is 20 µM [falling, partial curve].

For the compound `CCSc1ncc(Cl)c(C(=O)N(Cc2ccc(N(C)C)cc2)Cc2ccco2)n1`, the AC50 was 12.6 µM [falling, partial curve].

As for `Cc1ccc(NC(=O)CSc2nc3ccccc3nc2Cc2ccccc2)c(C)c1`, the AC50 is 20 µM [falling, partial curve, poor fit].

With `Cc1cccc(NC(=O)c2cc(-c3ccc4c(c3)OCCO4)on2)c1`, the AC50 is 0.0631 µM [falling, full curve].

On to `COc1ccc(C)cc1NC(=O)C1CCN(S(=O)(=O)c2ccc3c(c2)CCCN3C(C)=O)CC1`, for which the AC50 is 39.8 µM [falling, single point].

In the case of `Cc1ccc(Cl)cc1N1CCN(C(=O)C2CCN(S(=O)(=O)c3cccnc3)CC2)CC1`, the AC50 is 25.1 µM [falling, partial curve].

Regarding `Cc1nc2nc(NCc3cccc(Cl)c3)[nH]n2c(=O)c1Cc1ccccc1`, the AC50 is 39.8 µM [falling, single point].

For the compound `COC(=O)c1ccc(Cn2c(SCc3ccccc3F)nc3ccncc32)cc1`, the AC50 is 20 µM [falling, single point].

With `CC1C(=O)Nc2ccc(S(=O)(=O)NCc3ccc(N(C)C)cc3)cc2NC1=O` (stereo not given), the AC50 was 31.6 µM [falling, single point].

For `O=C(Nc1ccccc1)c1ccccc1O`, the AC50 is 12.6 µM [falling, partial curve].

For `COc1ccc(OCCn2c(C(C)Oc3ccccc3)nc3ccccc32)cc1` (stereo not given), the AC50 is 15.8 µM [falling, partial curve].

For the compound `C=CCn1c(SCC(=O)c2cccs2)nc2sc(C)cc2c1=O`, the AC50 is 3.16 µM [falling, full curve, poor fit].

As to `Cc1ccc(Cl)cc1-n1ncc2c(NCc3ccc(F)cc3)ncnc21`, the AC50 is 25.1 µM [falling, single point].

Consider `CCN(CC)S(=O)(=O)c1ccc2c(c1)nc(CN(C)C(=O)Nc1cccc(Cl)c1)n2C`, for which the AC50 was 3.16 µM [rising, single point].

As to `COc1cccc(C(=O)c2cn(CC(=O)Nc3cccc(C(F)(F)F)c3)c3nc(C)ccc3c2=O)c1`, the AC50 is 39.8 µM [falling, partial curve].

In the case of `CC(=O)N1CCc2cc(S(=O)(=O)NC(CC(C)C)C(=O)NCCc3ccc(C)cc3)ccc21` (stereo not given), the AC50 is 10 µM [falling, partial curve].

As for `COc1ccc(Cn2c(CCC(=O)Nc3ccc(C)c(C)c3)nc3cccnc32)cc1`, the AC50 is 39.8 µM [rising, single point] [measured here: IkB-luc green channel].

As for `CCCN(CCC)C(=O)CN1C(=O)CSc2ccc(S(=O)(=O)N3CCC(C)CC3)cc21`, the AC50 is 12.6 µM [falling, single point].
